Data as given in the supplement of paper PMC9233669.
This sample is rich in variants without activity.

Key:
biotinyl-Leu-oxazolone = assay: self-aminoacylation, catalytic enhancement (BLO) (fold over background); higher = more active; k-Seq, kA / k0A0; sequences stand for … in GGGAAUGGAUCCACAUCUACGAAUUC…UUCACUGCAGACUUGACGAAGCUG
Summary of the method: (§1)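 Catalytic enhancement equals the median kA over the uncatalyzed rate, the latter read from the low-activity peak of a bimodal Gaussian fit. Values of kA came from fitting each sequence's fraction reacted to a pseudo-first-order model, with 1000 bootstraps. Reacted RNA was captured with streptavidin and quantified by triplicate qPCR and Illumina sequencing after 90 minutes at room temperature with 2–1250 μM biotinyl-aminoacyl-oxazolone and 0.43 μM mutagenized RNA pools bearing a 21-nt variable region.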

biotinyl-Val-oxazolone = assay: self-aminoacylation, catalytic enhancement (BVO) (fold over background); higher = more active; k-Seq, kA / k0A0; sequences stand for … in GGGAAUGGAUCCACAUCUACGAAUUC…UUCACUGCAGACUUGACGAAGCUG
Summary of the method: as §1

biotinyl-Met-oxazolone = assay: self-aminoacylation, catalytic enhancement (BMO) (fold over background); higher = more active; k-Seq, kA / k0A0; sequences stand for … in GGGAAUGGAUCCACAUCUACGAAUUC…UUCACUGCAGACUUGACGAAGCUG
Summary of the method: as §1

biotinyl-Trp-oxazolone = assay: self-aminoacylation, catalytic enhancement (BWO) (fold over background); higher = more active; k-Seq, kA / k0A0; sequences stand for … in GGGAAUGGAUCCACAUCUACGAAUUC…UUCACUGCAGACUUGACGAAGCUG
Summary of the method: as §1

biotinyl-Ile-oxazolone = assay: self-aminoacylation, catalytic enhancement (BIO) (fold over background); higher = more active; k-Seq, kA / k0A0; sequences stand for … in GGGAAUGGAUCCACAUCUACGAAUUC…UUCACUGCAGACUUGACGAAGCUG
Summary of the method: as §1

biotinyl-Phe-oxazolone = assay: self-aminoacylation, catalytic enhancement (BFO) (fold over background); higher = more active; k-Seq, kA / k0A0; sequences stand for … in GGGAAUGGAUCCACAUCUACGAAUUC…UUCACUGCAGACUUGACGAAGCUG
Summary of the method: as §1

| Sequence | self-aminoacylation (biotinyl-Leu-oxazolone) | self-aminoacylation (biotinyl-Val-oxazolone) | self-aminoacylation (biotinyl-Met-oxazolone) | self-aminoacylation (biotinyl-Trp-oxazolone) | self-aminoacylation (biotinyl-Ile-oxazolone) | self-aminoacylation (biotinyl-Phe-oxazolone) |
| --- | --- | --- | --- | --- | --- | --- |
| AUUACUCUGGUCAUCCAGUGA [Fam2.1 aminoacylation ribozyme variant] | 5.29 | 2.74 | 5.01 | 6.01 | 3.2 | 17.3 |
| AUUACUCUGGUCAUCGAUUGA [Fam2.1 aminoacylation ribozyme variant] | 1.06 | 0.938 | 0.959 | 0.716 | 0.896 | 0.576 |
| AUUAGCCUGGUCAUCGAGUCA [Fam2.1 aminoacylation ribozyme variant] | 0.798 | 1 | 0.901 | 0.952 | 0.947 | 0.57 |
| AUUAUCCUGGUCAACGAGUGA [Fam2.1 aminoacylation ribozyme variant] | 8.02 | 3.87 | 6.62 | 7.67 | 3.69 | 30.1 |
| AUUAUCCUGGUCAUCGAAUGA [Fam2.1 aminoacylation ribozyme variant] | 1.11 | 1.1 | 1.01 | 0.435 | 0.962 | 0.645 |
| AUUAUCCUGGUCAUCGAUUGA [Fam2.1 aminoacylation ribozyme variant] | 1.06 | 0.882 | 0.968 | 0.883 | 0.867 | 0.706 |
| AUUAUCCUGGUCAUCGUGUGA [Fam2.1 aminoacylation ribozyme variant] | 3.83 | 2.05 | 3.54 | 5.91 | 2.15 | 28.6 |
| AUUCAACUAGGUCAUAGGGUG [Fam2.2 aminoacylation ribozyme variant] | 2.58 | 1.28 | 2 | 1.47 | 1.49 | 9.13 |
| AUUCACAUAGCUCAUCGGGUG [Fam2.2 aminoacylation ribozyme variant] | 2.36 | 2.38 | 1.91 | 2.34 | 2 | 12.6 |
| AUUCACAUAGGUCAUCGGAUG [Fam2.2 aminoacylation ribozyme variant] | 0.649 | 0.857 | 0.698 | 0.403 | 0.903 | 0.549 |
| AUUCACAUAGGUCAUCGGGGG [Fam2.2 aminoacylation ribozyme variant] | 1.93 | 1.87 | 2.28 | 2.66 | 1.85 | 0.694 |
| AUUCACAUAGGUCAUCGGUUG [Fam2.2 aminoacylation ribozyme variant] | 1.08 | 0.966 | 1.09 | 0.829 | 0.998 | 0.749 |
| AUUCACAUGGGUCAUCGGGUG [Fam2.2 aminoacylation ribozyme variant] | 11.6 | 5.96 | 9.66 | 8.84 | 5.6 | 70.4 |
| AUUCACCCAGGUCAUCGGUUG [Fam2.2 aminoacylation ribozyme variant] | 1.57 | 1.22 | 1.38 | 1.26 | 1.05 | 0.67 |
| AUUCACCUAAGUCGUCGGGUG [Fam2.2 aminoacylation ribozyme variant] | 2.55 | 1.87 | 2.18 | 2.02 | 1.88 | 10.1 |
| AUUCACCUAGCUCAUCGGGCG [Fam2.2 aminoacylation ribozyme variant] | 2.33 | 2.57 | 2.3 | 1.8 | 2.26 | 11.7 |
| AUUCACCUAGGCCAUCGGAUG [Fam2.2 aminoacylation ribozyme variant] | 0.863 | 0.921 | 0.758 | 0.627 | 0.824 | 0.269 |
| AUUCACCUAGGCCAUCGGGUC [Fam2.2 aminoacylation ribozyme variant] | 1.13 | 1.73 | 1.1 | 1.99 | 1.08 | 0.438 |
| AUUCACCUAGGGCAUCGGGUC [Fam2.2 aminoacylation ribozyme variant] | 1.44 | 1.44 | 1.28 | 1.15 | 1.67 | 1.72 |
| AUUCACCUAGGUAAUCGGGAG [Fam2.2 aminoacylation ribozyme variant] | 0.784 | 0.876 | 0.939 | 0.908 | 0.764 | 0.524 |
| AUUCACCUAGGUCAAAGGGUG [Fam2.2 aminoacylation ribozyme variant] | 1.62 | 1.23 | 1.31 | 1.64 | 1.23 | 1.9 |
| AUUCACCUAGGUCAGCGGGAG [Fam2.2 aminoacylation ribozyme variant] | 1.72 | 1.18 | 1.17 | 0.859 | 1.35 | 0.81 |
| AUUCACCUAGGUCAUAGGCUG [Fam2.2 aminoacylation ribozyme variant] | 0.742 | 0.81 | 0.591 | 0.512 | 0.714 | 0.512 |
| AUUCACCUAGGUCAUAGGGCG [Fam2.2 aminoacylation ribozyme variant] | 0.873 | 1.14 | 0.959 | 0.746 | 0.973 | 0.969 |
| AUUCACCUAGGUCAUAGGGGG [Fam2.2 aminoacylation ribozyme variant] | 1.14 | 1.13 | 0.798 | 1.72 | 0.966 | 1.28 |
| AUUCACCUAGGUCAUCGAGCG [Fam2.2 aminoacylation ribozyme variant] | 1.57 | 1.19 | 1.36 | 1.09 | 1.2 | 1.47 |

| Sequence | self-aminoacylation (biotinyl-Leu-oxazolone) | self-aminoacylation (biotinyl-Val-oxazolone) | self-aminoacylation (biotinyl-Met-oxazolone) | self-aminoacylation (biotinyl-Trp-oxazolone) | self-aminoacylation (biotinyl-Ile-oxazolone) | self-aminoacylation (biotinyl-Phe-oxazolone) |
| --- | --- | --- | --- | --- | --- | --- |
| AUUCACCUAGGUCAUCGGUCG [Fam2.2 aminoacylation ribozyme variant] | 0.989 | 0.863 | 0.82 | 0.521 | 0.787 | 0.372 |
| AUUCACCUAGGUCAUCGUGUA [Fam2.2 aminoacylation ribozyme variant] | 0.89 | 0.928 | 0.819 | 0.793 | 0.872 | 0.616 |
| AUUCACCUAGGUCAUGAGGUG [Fam2.2 aminoacylation ribozyme variant] | 3.15 | 1.81 | 2.41 | 1.75 | 1.94 | 3.32 |
| AUUCACCUAGGUCAUUGGGCG [Fam2.2 aminoacylation ribozyme variant] | 3.36 | 2.66 | 2.49 | 3.16 | 2.58 | 10.6 |
| AUUCACCUAGGUCGUCAGGUG [Fam2.2 aminoacylation ribozyme variant] | 0.829 | 0.829 | 0.687 | 0.42 | 0.7 | 0.366 |
| AUUCACCUAGGUGAUCGAGUG [Fam2.2 aminoacylation ribozyme variant] | 1.2 | 1.05 | 1.09 | 1.03 | 1.03 | 0.745 |
| AUUCACCUAUGUCAACGGGUG [Fam2.2 aminoacylation ribozyme variant] | 3.35 | 2.01 | 2.83 | 2.52 | 1.83 | 16.8 |
| AUUCACCUAUGUCAUCGGCUG [Fam2.2 aminoacylation ribozyme variant] | 1.26 | 1.3 | 1.21 | 0.681 | 1.38 | 0.644 |
| AUUCACCUAUGUCAUCGGGUC [Fam2.2 aminoacylation ribozyme variant] | 0.797 | 0.916 | 1.02 | 0.822 | 0.898 | 0.551 |
| AUUCACCUCCGUCAUCGGGUG [Fam2.2 aminoacylation ribozyme variant] | 10.8 | 4.91 | 8.59 | 8.32 | 5.62 | 70.3 |
| AUUCACCUUGGUCAUCGGAUG [Fam2.2 aminoacylation ribozyme variant] | 0.714 | 0.845 | 0.633 | 0.477 | 0.768 | 0.466 |
| AUUCACCUUGGUCAUCGGGAG [Fam2.2 aminoacylation ribozyme variant] | 1.09 | 1.05 | 1.05 | 1.27 | 1.07 | 0.73 |
| AUUCACUUAGGUCAUCGGAUG [Fam2.2 aminoacylation ribozyme variant] | 0.579 | 0.714 | 0.766 | 0.528 | 0.701 | 0.46 |
| AUUCAGCCAGGUCAUCGGGUG [Fam2.2 aminoacylation ribozyme variant] | 10.7 | 5.4 | 8.99 | 9.91 | 5.25 | 59.7 |
| AUUCAGCUAGGUCAUCGGGGG [Fam2.2 aminoacylation ribozyme variant] | 3.48 | 2.23 | 2.69 | 2.72 | 3.18 | 16.7 |
| AUUCAUCCAGGUCAUCGGGUG [Fam2.2 aminoacylation ribozyme variant] | 9.76 | 4.75 | 7.87 | 6.96 | 4.96 | 47.8 |
| AUUCAUCUAGGUCAUCGGGGG [Fam2.2 aminoacylation ribozyme variant] | 2.31 | 1.9 | 2.13 | 2.14 | 1.82 | 5.32 |
| AUUCCCCUAGGUCAUAGGGUG [Fam2.2 aminoacylation ribozyme variant] | 6.57 | 3.08 | 4.99 | 4.78 | 3.38 | 17.1 |
| AUUCCCCUAGGUCAUCGGGAG [Fam2.2 aminoacylation ribozyme variant] | 9.02 | 6.76 | 8.27 | 8.9 | 6.89 | 19.4 |
| AUUCCCCUGGUCAUCUAGUGA [Fam2.1 aminoacylation ribozyme variant] | 11.4 | 6.23 | 11.9 | 13 | 5.92 | 85.5 |
| AUUCCCCUGGUCAUUGAGUGA [Fam2.1 aminoacylation ribozyme variant] | 8.32 | 4.5 | 8.79 | 11.7 | 4.73 | 64.3 |
| AUUCCCCUGGUCGUCGAGUGA [Fam2.1 aminoacylation ribozyme variant] | 1.71 | 1.33 | 1.42 | 1.52 | 1.48 | 6.18 |
| AUUCGCCUAGGUCAUCGUGUG [Fam2.2 aminoacylation ribozyme variant] | 1.35 | 1.05 | 1.45 | 0.823 | 1.04 | 3.31 |
| AUUCUCCUAGGUCCUCGGGUG [Fam2.2 aminoacylation ribozyme variant] | 10.5 | 4.54 | 6.44 | 7.62 | 4.72 | 54.1 |
| AUUGACCUAGGUCACCGGGUG [Fam2.2 aminoacylation ribozyme variant] | 6.34 | 4.87 | 4.69 | 6.05 | 4.43 | 29.6 |
